In publication PMC7366679:
No constants are given. Whether binding was seen depends on the method and setting. In cells and extracts the contact can be indirect. Here binding means that the protein was enriched with, or labelled near, the bait; the list need not be complete. Tags and fused reporters may be left off the sequences shown.

Amino acid sequences for entries named in this document (tags omitted).
UniProt Q9NR09: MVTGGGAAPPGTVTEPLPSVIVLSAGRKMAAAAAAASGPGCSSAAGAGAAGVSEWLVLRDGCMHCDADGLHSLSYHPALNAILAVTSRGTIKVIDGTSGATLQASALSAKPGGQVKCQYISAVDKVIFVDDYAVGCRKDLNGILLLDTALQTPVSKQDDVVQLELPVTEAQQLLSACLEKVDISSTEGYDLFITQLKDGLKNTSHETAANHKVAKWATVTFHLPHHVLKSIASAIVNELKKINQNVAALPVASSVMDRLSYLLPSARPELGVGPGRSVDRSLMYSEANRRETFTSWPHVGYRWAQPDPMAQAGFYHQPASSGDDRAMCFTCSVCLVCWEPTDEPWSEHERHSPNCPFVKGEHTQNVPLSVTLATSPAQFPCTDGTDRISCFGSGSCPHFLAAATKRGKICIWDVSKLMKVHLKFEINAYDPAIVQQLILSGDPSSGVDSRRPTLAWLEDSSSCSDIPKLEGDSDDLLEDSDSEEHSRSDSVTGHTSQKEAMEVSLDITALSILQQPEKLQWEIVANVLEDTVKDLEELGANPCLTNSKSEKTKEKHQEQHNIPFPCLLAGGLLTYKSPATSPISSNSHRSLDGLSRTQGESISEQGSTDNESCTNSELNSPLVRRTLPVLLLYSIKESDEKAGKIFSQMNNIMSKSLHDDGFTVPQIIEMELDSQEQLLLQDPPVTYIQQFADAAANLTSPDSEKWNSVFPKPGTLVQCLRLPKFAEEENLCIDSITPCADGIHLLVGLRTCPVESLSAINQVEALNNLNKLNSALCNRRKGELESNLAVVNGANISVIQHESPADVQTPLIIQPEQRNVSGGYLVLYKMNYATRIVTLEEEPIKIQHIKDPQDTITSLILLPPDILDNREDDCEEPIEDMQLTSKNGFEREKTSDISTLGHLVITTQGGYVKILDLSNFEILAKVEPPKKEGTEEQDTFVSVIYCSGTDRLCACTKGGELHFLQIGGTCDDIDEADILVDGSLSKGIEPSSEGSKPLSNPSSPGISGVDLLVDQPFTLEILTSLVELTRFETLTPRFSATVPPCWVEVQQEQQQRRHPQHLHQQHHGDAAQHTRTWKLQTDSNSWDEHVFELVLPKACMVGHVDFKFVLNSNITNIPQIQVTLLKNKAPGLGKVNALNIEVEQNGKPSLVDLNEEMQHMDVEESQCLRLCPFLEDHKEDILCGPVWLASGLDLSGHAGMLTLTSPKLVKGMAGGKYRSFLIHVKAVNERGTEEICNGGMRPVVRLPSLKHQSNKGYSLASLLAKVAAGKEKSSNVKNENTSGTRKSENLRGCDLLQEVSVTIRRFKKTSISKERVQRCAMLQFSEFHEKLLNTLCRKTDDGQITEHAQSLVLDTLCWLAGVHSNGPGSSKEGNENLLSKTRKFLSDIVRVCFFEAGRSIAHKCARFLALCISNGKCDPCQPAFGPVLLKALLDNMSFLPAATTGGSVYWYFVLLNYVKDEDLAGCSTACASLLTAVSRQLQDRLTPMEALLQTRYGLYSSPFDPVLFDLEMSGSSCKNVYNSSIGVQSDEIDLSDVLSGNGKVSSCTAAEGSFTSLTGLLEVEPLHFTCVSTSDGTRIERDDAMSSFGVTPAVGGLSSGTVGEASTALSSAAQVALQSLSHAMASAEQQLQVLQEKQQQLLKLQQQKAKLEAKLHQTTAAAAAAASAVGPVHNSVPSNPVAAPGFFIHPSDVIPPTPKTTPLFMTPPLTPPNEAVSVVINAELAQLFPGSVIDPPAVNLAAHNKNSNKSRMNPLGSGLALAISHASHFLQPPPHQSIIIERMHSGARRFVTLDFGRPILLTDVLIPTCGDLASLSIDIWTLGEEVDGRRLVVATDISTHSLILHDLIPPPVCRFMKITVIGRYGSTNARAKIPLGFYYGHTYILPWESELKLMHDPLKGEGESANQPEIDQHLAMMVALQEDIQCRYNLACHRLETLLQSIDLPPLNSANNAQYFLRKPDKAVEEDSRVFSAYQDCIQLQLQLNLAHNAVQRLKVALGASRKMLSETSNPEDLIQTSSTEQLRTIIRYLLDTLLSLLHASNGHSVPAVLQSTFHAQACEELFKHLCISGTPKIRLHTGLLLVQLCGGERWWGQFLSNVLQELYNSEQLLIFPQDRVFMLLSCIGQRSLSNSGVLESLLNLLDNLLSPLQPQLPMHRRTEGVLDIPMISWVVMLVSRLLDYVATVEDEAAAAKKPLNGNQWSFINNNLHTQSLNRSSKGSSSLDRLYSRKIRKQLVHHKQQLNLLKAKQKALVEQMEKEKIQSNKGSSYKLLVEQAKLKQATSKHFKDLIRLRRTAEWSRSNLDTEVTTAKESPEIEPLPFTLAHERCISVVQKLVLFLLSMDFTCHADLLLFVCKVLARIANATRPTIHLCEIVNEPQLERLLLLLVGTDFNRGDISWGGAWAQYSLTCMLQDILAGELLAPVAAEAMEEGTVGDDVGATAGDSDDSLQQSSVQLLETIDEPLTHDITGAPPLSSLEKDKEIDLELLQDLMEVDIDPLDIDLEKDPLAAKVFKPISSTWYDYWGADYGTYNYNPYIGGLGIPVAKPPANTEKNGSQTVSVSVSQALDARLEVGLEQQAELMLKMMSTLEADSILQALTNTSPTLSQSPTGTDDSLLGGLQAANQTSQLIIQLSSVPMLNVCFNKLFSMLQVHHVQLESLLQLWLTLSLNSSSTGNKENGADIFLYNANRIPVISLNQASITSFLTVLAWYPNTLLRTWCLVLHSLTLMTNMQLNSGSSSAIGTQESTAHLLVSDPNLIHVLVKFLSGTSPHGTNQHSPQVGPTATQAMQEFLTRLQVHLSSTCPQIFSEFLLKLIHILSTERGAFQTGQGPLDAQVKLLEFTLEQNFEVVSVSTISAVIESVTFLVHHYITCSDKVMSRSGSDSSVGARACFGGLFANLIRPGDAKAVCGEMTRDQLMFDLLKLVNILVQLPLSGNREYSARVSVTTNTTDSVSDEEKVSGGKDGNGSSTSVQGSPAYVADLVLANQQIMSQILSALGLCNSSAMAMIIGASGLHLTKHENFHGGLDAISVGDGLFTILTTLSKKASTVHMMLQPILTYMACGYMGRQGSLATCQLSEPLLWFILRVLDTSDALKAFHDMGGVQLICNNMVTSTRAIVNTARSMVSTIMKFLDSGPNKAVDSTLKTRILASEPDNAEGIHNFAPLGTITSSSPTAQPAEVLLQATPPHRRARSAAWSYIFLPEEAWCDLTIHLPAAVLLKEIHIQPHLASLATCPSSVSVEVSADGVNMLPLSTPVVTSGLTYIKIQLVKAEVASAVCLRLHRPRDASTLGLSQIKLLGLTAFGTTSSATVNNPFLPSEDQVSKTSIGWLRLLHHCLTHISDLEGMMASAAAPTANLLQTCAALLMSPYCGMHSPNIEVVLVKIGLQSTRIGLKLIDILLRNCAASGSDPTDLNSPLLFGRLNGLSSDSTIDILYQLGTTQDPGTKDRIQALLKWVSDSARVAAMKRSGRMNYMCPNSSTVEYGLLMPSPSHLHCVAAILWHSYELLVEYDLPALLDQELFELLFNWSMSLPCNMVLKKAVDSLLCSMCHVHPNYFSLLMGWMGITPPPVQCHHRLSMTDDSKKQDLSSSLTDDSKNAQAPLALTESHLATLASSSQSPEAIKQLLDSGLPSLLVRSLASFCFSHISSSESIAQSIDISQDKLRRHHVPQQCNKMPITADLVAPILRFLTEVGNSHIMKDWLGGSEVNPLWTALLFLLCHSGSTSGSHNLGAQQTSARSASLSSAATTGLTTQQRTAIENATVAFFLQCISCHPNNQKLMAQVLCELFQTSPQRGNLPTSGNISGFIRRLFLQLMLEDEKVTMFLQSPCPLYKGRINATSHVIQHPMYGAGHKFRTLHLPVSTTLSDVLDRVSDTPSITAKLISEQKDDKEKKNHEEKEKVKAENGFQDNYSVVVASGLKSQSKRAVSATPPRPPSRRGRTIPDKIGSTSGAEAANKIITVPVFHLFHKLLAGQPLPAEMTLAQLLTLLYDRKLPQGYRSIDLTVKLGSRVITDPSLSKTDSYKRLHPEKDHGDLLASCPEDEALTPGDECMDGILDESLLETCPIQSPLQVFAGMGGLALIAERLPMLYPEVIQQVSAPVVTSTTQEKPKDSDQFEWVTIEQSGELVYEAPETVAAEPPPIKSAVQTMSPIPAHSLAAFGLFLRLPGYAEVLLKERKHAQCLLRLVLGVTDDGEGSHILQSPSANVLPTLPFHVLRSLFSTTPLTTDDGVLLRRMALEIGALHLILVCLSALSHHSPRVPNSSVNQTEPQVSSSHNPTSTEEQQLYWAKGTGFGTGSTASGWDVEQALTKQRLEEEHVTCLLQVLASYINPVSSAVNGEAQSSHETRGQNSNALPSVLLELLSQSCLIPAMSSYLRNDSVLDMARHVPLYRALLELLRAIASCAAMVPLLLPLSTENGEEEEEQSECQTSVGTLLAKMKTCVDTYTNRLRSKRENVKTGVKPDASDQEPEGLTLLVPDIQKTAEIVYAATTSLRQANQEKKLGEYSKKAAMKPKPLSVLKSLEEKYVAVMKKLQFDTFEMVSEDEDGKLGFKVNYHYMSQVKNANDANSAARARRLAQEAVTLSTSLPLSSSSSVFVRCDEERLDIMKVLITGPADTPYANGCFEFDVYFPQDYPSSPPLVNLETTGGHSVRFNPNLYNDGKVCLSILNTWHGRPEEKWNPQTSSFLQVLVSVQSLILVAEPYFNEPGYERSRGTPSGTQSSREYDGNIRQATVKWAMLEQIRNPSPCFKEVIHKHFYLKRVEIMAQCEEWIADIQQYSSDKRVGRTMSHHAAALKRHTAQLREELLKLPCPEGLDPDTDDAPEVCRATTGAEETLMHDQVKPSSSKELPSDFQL

Target: T1, Dyrk2, wild type, tagged bait (Strep-HA or FLAG-BirA*; which is not told for these hits) (human) (UniProt Q92630)
T1 sequence: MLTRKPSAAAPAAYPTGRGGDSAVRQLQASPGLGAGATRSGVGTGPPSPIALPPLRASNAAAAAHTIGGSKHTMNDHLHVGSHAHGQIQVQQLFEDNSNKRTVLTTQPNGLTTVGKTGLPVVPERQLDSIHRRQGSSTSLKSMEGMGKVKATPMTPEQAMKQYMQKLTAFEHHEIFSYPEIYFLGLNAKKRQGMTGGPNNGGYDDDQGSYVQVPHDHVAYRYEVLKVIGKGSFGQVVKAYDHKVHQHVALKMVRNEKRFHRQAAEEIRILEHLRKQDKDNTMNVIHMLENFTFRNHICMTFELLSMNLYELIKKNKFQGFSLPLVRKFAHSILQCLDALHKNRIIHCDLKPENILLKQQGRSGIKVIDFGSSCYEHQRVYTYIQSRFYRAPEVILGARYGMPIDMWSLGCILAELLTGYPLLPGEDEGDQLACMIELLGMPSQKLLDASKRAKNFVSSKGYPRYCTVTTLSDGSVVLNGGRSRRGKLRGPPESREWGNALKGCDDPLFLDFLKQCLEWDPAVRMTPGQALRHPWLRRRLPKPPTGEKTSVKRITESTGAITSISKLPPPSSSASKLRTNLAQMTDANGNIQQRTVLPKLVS
Assay: affinity purification with mass spectrometry + proximity labelling; reference interaction network of the wild-type baits (Dyrk2, DDB1, VprBP, Ubr5) in T-REx HEK293 cells; the text does not tell by which of the two methods the hit was found

Row | binding | Substance
1 | binds | p53 (from UniProt P04637 1-393)
2 | binds | ubiquitin ligase Birc6 (from UniProt Q9NR09 1-4857)
